# Test results from PMC10314917.
# Amino acid sequences for entries named in this document (tags omitted). A change or cut given only in a name is not applied to a line headed by its entry.
# UniProt Q9UBU8: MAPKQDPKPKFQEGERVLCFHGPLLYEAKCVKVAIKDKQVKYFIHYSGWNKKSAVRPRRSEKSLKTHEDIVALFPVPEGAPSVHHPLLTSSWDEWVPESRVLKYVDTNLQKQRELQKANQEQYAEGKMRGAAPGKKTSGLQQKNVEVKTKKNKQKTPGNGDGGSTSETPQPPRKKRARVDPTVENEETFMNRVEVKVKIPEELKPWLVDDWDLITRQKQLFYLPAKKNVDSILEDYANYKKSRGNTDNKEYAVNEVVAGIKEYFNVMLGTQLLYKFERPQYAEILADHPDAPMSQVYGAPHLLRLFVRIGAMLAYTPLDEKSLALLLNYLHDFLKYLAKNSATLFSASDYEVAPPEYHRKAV
# UniProt Q16531: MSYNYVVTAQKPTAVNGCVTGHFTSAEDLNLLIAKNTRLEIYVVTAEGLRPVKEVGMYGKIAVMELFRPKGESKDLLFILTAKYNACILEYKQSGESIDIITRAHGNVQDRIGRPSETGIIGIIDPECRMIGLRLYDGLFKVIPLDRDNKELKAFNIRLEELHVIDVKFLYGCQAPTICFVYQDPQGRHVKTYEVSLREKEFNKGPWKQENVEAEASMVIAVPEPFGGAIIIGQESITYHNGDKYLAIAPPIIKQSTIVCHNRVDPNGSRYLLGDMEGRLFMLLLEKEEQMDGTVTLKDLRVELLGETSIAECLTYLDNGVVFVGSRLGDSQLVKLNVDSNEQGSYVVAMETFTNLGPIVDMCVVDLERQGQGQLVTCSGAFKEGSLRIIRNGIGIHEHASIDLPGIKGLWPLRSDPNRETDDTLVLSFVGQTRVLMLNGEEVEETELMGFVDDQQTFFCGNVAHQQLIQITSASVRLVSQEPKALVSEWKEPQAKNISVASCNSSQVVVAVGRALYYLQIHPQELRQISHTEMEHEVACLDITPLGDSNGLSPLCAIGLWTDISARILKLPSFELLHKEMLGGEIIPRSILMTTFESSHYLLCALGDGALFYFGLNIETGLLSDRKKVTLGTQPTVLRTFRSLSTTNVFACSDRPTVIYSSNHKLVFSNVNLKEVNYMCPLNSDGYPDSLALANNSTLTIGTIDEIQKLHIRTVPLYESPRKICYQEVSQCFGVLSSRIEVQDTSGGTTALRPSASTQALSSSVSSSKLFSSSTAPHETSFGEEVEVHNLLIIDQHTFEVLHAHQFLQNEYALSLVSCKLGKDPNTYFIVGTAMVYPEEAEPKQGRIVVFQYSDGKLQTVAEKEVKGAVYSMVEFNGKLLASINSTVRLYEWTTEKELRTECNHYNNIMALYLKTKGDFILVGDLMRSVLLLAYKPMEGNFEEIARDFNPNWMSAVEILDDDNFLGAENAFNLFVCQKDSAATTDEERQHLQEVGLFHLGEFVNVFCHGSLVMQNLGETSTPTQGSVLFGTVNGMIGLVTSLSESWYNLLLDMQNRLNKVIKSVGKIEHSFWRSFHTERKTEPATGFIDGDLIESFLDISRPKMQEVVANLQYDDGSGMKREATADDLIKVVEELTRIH
# UniProt Q9Y5B9: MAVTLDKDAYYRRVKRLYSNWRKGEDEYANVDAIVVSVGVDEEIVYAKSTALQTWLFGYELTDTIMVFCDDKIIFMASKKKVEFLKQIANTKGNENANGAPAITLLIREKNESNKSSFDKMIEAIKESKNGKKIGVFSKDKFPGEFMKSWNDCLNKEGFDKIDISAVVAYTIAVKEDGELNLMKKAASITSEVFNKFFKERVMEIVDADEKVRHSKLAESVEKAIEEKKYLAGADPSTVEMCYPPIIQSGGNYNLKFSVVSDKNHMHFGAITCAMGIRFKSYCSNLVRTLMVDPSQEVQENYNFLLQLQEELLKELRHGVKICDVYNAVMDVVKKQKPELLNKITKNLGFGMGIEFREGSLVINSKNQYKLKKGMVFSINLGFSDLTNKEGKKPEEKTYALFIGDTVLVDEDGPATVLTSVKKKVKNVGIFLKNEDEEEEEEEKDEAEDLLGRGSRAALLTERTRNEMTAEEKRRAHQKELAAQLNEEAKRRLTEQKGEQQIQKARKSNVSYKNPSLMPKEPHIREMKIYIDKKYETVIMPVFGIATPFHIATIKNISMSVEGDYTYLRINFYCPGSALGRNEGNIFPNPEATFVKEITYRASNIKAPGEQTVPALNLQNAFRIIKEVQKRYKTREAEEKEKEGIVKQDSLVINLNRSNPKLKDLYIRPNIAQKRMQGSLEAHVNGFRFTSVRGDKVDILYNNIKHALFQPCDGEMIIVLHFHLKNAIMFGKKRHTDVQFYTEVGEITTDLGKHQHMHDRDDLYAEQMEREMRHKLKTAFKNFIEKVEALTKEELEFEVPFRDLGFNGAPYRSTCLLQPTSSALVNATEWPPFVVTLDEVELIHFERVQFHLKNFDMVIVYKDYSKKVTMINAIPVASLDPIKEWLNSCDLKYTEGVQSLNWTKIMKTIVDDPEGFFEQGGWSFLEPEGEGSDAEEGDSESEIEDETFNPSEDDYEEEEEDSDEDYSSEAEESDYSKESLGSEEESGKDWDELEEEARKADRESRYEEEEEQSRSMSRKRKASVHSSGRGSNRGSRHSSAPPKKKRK
# These are yes or no findings as the source states them, for the method shown. In cells and extracts the contact can be indirect. Some results given as binding are weak or reduced against the parent protein; the word gives no strength.
# Biological target: MRG15 (MORF4-Related Gene on chromosome 15) conjugated with the Flag tag (human) (UniProt Q9UBU8)
# Experiment: co-IP; anti-Flag M2 affinity gel incubated with 500 µg whole-cell lysate (NETN buffer) of transfected U2OS cells overnight at 4 °C; eluted with 3x Flag peptide; eluates analysed by immunoblotting
row,Substance,binding
1,DDB1-DDB2 (from UniProt Q16531 1-1140; Q92466 1-427) (complex),binds
2,SPT16 (SuPpressor of Ty 16) (from UniProt Q9Y5B9 1-1047),binds
